Columns and labels:
[1] = pH 7.4; cited from earlier work
physchem = conditions: pH 7.4

Compound: COC(=O)C1=C(C)NC(C)=C(C(=O)OC)C1c1ccccc1[N+](=O)[O-] [Nifedipine]
- logDoct [1]: 3.17
- chromatographic logD (physchem): 2.84
